Some of the results follow.
How the values were obtained:
Assay in all cases: log2 fold change, soluble protein after heating vs DMSO (PISA); higher = thermal stabilisation; K562 lysate, 10 uM; active = over 0.2 and 3.5 SD of the protein, either way, in both replicates (recomputed)
[1] = compound: CCCS(=O)(=O)Nc1ccc(F)c(C(=O)c2c[nH]c3ncc(Cl)cc23)c1F
In short: (§1)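 Pellets of K562 cells were dounce-homogenised in PBS pH 7.4 with 1 mM MgCl2, and the crude extract was held at 1 mg/mL protein for a 30 min treatment with 10 μM compound. Aliquots were heated for 3 min over 48°C-58°C and pooled before NP-40 was added to 0.5% at 4°C. The supernatant from 21,000xg for 90 min was quantified by TMTpro 16plex LC-MS/MS with channel sums equalised. Values are reported from duplicates as log-two fold change in thermal stability relative to solvent controls.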

Chains of the proteins cited; added tags and fusions are not shown. Lines headed by an entry give the natural chain unless they say otherwise; changes in a name come on top.
UniProt Q9Y227: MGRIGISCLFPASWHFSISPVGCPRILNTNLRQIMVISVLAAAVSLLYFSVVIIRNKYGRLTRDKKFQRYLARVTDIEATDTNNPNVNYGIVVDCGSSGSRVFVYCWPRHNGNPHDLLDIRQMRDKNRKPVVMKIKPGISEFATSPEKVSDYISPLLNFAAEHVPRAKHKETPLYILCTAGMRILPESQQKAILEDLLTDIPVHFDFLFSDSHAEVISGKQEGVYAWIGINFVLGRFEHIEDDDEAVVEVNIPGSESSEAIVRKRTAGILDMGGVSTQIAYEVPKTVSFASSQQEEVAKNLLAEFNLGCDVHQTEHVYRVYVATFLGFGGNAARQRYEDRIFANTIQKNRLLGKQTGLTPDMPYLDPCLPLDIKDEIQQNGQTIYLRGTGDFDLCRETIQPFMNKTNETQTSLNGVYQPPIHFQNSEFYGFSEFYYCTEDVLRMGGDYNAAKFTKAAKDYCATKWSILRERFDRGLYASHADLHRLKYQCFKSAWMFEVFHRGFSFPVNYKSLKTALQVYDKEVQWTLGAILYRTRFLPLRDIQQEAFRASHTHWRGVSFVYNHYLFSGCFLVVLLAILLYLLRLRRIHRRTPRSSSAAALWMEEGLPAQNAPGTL
UniProt O15197: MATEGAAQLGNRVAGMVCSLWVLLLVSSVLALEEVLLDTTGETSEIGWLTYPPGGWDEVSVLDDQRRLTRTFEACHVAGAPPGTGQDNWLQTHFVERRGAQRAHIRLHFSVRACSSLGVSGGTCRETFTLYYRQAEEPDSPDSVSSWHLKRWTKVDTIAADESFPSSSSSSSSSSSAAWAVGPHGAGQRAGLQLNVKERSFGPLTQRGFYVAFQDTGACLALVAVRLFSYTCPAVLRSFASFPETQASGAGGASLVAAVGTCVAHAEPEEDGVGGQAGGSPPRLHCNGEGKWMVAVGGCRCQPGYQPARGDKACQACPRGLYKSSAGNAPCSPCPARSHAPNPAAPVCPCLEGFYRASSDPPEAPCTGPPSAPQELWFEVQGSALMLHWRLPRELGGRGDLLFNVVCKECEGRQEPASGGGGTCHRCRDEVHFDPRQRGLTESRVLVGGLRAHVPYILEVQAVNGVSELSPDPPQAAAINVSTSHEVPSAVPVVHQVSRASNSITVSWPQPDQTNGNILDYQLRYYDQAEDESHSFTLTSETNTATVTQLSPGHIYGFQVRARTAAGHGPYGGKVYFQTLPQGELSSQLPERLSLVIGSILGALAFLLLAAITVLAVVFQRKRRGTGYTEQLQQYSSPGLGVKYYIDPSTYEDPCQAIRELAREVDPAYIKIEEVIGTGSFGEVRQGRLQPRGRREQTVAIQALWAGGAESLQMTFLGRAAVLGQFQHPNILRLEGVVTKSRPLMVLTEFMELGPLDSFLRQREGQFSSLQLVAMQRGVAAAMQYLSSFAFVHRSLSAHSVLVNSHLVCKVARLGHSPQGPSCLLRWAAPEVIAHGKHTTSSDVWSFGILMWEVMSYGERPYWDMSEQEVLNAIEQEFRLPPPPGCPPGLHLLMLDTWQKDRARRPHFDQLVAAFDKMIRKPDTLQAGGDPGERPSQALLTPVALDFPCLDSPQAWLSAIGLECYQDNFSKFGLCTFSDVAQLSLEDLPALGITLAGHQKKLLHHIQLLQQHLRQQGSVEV
UniProt Q05BV3: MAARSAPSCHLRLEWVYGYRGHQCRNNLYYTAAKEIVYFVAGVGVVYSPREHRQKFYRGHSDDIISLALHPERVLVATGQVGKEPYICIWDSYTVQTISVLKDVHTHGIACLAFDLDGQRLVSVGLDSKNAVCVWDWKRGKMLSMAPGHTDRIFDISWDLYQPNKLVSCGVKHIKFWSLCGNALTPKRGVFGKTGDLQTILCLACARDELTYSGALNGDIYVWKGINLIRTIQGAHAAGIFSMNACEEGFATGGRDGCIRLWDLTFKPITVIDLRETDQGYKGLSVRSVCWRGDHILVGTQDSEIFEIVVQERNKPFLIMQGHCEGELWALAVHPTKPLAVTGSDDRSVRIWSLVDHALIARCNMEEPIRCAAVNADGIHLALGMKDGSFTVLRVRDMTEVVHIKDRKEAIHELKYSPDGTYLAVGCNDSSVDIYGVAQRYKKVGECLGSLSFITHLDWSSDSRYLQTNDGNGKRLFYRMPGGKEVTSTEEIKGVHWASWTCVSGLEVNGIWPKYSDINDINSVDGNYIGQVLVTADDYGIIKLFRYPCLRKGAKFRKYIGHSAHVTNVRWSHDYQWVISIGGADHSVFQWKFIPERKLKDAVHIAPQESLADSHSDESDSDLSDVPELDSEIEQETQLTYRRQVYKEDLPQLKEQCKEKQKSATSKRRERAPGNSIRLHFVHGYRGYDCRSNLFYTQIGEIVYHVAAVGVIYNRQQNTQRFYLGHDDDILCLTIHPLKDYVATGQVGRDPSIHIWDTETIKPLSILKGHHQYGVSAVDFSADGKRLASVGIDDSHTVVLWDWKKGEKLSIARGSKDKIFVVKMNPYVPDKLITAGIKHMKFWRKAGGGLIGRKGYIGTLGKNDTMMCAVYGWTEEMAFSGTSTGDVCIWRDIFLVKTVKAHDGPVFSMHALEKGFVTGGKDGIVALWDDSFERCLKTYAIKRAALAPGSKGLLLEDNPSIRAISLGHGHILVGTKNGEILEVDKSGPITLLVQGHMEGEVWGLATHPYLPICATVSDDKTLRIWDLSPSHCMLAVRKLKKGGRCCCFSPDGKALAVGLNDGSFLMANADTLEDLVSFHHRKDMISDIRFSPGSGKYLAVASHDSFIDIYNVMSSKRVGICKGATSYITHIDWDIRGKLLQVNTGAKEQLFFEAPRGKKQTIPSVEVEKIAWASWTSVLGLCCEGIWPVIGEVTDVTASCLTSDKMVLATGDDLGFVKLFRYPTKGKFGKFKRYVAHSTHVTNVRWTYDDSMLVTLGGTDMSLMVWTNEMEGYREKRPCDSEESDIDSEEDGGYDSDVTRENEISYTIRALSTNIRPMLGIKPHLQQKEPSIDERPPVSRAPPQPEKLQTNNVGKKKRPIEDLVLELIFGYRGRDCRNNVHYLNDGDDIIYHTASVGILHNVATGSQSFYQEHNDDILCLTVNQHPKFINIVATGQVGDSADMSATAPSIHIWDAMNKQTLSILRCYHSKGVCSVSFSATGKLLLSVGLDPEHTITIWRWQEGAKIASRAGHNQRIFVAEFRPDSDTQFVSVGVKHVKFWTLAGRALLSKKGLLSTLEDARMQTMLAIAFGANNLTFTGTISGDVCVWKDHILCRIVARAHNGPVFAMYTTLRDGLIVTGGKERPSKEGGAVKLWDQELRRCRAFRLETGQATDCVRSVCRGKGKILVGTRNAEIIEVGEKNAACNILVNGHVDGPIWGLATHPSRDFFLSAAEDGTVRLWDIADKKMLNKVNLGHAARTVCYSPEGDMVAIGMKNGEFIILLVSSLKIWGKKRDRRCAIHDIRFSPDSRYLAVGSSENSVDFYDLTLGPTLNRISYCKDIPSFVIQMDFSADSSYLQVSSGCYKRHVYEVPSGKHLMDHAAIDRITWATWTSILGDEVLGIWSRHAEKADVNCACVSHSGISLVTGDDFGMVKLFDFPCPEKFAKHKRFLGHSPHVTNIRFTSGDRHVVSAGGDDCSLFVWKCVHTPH
UniProt Q8TE02: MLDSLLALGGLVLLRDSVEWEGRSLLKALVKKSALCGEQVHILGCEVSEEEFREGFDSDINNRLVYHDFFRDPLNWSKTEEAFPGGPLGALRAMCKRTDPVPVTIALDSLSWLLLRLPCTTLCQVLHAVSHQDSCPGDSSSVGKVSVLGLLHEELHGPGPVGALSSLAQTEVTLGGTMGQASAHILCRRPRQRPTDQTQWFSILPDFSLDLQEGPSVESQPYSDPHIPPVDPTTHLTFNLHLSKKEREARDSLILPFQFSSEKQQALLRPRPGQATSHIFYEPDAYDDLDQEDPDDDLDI
UniProt P50548: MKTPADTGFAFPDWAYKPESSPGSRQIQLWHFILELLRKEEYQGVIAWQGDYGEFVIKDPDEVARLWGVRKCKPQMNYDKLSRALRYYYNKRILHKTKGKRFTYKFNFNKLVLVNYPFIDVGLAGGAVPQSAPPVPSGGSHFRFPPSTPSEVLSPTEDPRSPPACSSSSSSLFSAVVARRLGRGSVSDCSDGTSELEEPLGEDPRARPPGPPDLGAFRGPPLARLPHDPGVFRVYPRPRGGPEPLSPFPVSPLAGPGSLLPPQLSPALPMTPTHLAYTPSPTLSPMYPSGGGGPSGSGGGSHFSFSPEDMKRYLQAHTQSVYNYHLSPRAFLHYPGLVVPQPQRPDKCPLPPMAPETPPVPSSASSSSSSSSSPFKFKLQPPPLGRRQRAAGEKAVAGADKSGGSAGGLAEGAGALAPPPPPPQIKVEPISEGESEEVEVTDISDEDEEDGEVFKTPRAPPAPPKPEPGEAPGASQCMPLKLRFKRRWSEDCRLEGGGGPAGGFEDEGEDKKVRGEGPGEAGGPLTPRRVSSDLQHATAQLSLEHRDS
UniProt Q9H2F5, whole entry, looked up: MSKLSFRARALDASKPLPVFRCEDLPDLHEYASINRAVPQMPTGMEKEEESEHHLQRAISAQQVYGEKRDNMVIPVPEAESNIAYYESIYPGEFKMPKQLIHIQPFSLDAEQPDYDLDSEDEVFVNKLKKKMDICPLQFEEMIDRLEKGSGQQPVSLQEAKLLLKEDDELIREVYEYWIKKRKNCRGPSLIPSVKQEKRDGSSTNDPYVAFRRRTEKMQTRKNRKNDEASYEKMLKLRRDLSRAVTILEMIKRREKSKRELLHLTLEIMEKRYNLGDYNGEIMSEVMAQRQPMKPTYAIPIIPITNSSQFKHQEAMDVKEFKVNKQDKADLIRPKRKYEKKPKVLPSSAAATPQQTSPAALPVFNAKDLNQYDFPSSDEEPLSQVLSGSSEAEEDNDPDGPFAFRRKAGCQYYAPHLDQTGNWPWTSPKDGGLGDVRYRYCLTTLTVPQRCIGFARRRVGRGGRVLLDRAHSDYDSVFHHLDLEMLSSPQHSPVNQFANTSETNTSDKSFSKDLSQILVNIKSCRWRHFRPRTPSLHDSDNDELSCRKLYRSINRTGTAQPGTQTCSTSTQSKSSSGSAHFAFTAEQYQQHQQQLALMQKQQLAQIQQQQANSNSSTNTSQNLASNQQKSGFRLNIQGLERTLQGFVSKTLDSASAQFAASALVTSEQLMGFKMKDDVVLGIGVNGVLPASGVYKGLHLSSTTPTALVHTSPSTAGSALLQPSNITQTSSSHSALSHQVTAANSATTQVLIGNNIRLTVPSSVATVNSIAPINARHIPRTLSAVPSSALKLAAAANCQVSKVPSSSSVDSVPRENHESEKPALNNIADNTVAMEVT
UniProt Q8N766: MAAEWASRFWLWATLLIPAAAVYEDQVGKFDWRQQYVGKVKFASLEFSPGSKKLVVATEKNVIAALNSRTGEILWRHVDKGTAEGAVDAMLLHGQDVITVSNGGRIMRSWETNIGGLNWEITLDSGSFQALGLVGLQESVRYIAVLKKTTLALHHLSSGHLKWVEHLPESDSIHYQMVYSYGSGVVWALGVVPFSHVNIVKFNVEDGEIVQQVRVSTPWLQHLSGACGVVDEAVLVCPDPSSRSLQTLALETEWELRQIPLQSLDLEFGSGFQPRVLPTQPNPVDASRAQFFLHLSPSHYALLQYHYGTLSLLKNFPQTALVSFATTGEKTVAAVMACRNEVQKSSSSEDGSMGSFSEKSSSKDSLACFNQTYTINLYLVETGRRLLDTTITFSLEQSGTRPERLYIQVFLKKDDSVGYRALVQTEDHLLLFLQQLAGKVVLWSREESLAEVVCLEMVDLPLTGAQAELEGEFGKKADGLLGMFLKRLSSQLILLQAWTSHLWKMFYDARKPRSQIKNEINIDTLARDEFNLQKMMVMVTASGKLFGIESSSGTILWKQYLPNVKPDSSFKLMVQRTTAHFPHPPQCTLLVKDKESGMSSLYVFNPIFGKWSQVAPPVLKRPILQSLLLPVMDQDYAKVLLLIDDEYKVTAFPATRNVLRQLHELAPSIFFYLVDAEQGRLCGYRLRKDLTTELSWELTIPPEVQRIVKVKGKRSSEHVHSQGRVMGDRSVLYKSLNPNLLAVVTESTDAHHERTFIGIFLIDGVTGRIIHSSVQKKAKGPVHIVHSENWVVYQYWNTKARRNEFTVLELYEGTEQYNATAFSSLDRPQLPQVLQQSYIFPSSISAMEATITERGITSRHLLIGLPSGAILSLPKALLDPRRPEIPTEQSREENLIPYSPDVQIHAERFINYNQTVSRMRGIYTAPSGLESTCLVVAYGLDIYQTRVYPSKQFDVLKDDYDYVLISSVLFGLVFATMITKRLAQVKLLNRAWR
UniProt A1L3X0: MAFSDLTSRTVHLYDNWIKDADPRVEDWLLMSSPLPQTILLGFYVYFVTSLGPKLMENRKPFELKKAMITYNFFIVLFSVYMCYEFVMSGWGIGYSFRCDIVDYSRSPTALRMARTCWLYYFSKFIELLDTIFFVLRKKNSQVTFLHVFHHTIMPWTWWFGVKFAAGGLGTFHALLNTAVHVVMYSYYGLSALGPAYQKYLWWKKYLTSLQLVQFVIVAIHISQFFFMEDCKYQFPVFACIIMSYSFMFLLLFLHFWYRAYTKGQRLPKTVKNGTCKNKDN

[2] = compound: CC[C@@H]1C(=O)N(C)c2cnc(Nc3ccc(C(=O)N[C@H]4CC[C@H](N5CCN(CC6CC6)CC5)CC4)cc3OC)nc2N1C(C)C [volasertib]
In short: as §1

[3] = compound: COc1cc2nc(-c3cc(F)ccc3O)nc(N[C@@H]3CNC[C@H]3C(C)(C)O)c2cc1OC
In short: as §1

[4] = compound: CCn1c(C(=O)N(C2CC2)C2CC2)cc2c3c(ncn3C)c(Nc3cc(C)n(C)n3)nc21
In short: as §1

[5] = compound: CCn1cc(-c2ccnc3[nH]c(-c4cccc(CN(C)C)c4)cc23)c(-c2ccc(NC(=O)N(C)C)cc2)n1
In short: as §1

[6] = compound: CN1CCC(CNc2ccc3ncc(-c4cccc(OC(F)(F)F)c4)n3n2)CC1
In short: as §1

[7] = compound: CN1CCN(c2nc(C3=C(c4c[nH]c5ccccc45)C(=O)NC3=O)c3ccccc3n2)CC1 [sotrastaurin]
In short: as §1

[8] = compound: CN1CC[C@H](c2c(O)cc(O)c3c(=O)cc(-c4ccccc4Cl)oc23)[C@H](O)C1 [alvocidib]
In short: as §1

[9] = compound: CN1CCc2c(c3ccccc3n2Cc2ccc(C(=O)NO)cc2)C1 [Tubastatin A]
In short: as §1

[10] = compound: CNC(=O)C1=CC=CC=C1NC2=NC(=NC=C2Cl)NC3=C(C=C(C=C3)N4CCOCC4)OC
In short: as §1

[11] = compound: COc1cc(Nc2ncc3c(n2)-c2ccc(Cl)cc2C(c2c(F)cccc2OC)=NC3)ccc1C(=O)O [alisertib]
In short: as §1

[12] = compound: COc1cc2ncnc(Nc3ccc(F)c(Cl)c3)c2cc1OCCCN1CCOCC1 [gefitinib]
In short: as §1

[13] = compound: CCCS(=O)(=O)Nc1ccc(F)c(C(=O)c2c[nH]c3ncc(-c4ccc(Cl)cc4)cc23)c1F [vemurafenib]
In short: as §1

[14] = compound: CC[C@@H]1C(=O)N(C)c2cnc(Nc3ccc(C(=O)NC4CCN(C)CC4)cc3OC)nc2N1C1CCCC1
In short: as §1

[15] = compound: CNC(=O)c1ccc(Nc2ncc(C(F)(F)F)c(NCc3nccnc3N(C)S(C)(=O)=O)n2)cc1 [defactinib]
In short: as §1

[16] = compound: COC(=O)N[C@@H](C)CNc1nccc(-c2cn(C(C)C)nc2-c2cc(Cl)cc(NS(C)(=O)=O)c2F)n1 [encorafenib]
In short: as §1

[17] = compound: COC(=O)[C@H](CCSC)NC(=O)C1=C(C=C(C=C1)NC[C@H](CS)N)C2=CC=CC=C2
In short: as §1

[18] = compound: CCN(CCCOc1ccc2c(Nc3cc(CC(=O)Nc4cccc(F)c4)[nH]n3)ncnc2c1)CCOP(=O)(O)O [barasertib]
In short: as §1

[19] = compound: CN1CCN(CCOc2cc(OC3CCOCC3)c3c(Nc4c(Cl)ccc5c4OCO5)ncnc3c2)CC1 [saracatinib]
In short: as §1

[20] = compound: CNc1nc(-c2ccc3c(N)n[nH]c3c2)cc(N2C[C@@H](C(=O)NC3CCCCC3)CC[C@H]2C)n1
In short: as §1

Measured: log2 fold change

ENO3 (UniProt K7EKN2)
inactive: [1] -0.071 | [2] -0.038 | [3] 0.012

EPB41 isoform 4 (UniProt P11171)
inactive: [1] 0.014 | [2] 0.134 | [4] -0.079 | [5] -0.073 | [6] -0.065 | [7] -0.02 | [8] -0.014 | [9] 0.012 | [10] -0.089 | [11] -0.09 | [3] -0.153 | [12] -0.096

ENTR1 (UniProt Q96C92)
inactive: [13] 0.071 | [14] -0.026 | [4] -0.125 | [7] -0.061 | [9] -0.044 | [15] -0.007 | [16] -0.066 | [17] -0.092 | [11] 0.085 | [12] 0.225

ELOF1 (UniProt P60002)
inactive: [1] 0.016 | [18] 0.036 | [2] 0.05 | [4] -0.207 | [5] 0.117 | [6] 0.064 | [19] 0.109 | [7] -0.429 | [8] -0.055 | [9] 0.131 | [10] -0.045 | [20] 0.023 | [3] -0.013

EIF3I (UniProt Q5TFK1)
inactive: [1] 0.147 | [2] -0.112 | [5] -0.048 | [6] 0.044 | [8] 0.053 | [11] 0.159 | [3] 0.613 | [12] 0.233

ENTPD4 (UniProt Q9Y227)
inactive: [4] -0.028 | [9] 0.058

EIF4A1 (UniProt J3KS25)
inactive: [13] 0.039 | [14] 0.126 | [4] -0.14 | [9] -0.029 | [15] -0.042 | [16] -0.097 | [17] 0.073

EIF4E3 (UniProt Q8N5X7)
inactive: [13] -0.086 | [14] -0.061 | [5] -0.058 | [6] 0.087 | [7] -0.03 | [8] -0.011 | [10] -0.288 | [15] -0.057 | [16] 0.035 | [17] 0.032 | [11] 0.07 | [12] 0.052

EPHB6 (UniProt O15197)
inactive: [13] -0.088 | [14] -0.23 | [4] -0.166 | [5] 0.03 | [6] -0.093 | [8] -0.017 | [9] -0.185 | [15] 0.067 | [16] 0.064 | [17] 0.03 | [11] -0.059 | [12] -0.038

EIF4B (UniProt F8VP89)
inactive: [1] 0 | [18] -0.007 | [2] -0.067 | [19] 0.146 | [7] 0.01 | [20] -0.166 | [3] 0.099

EML5 isoform 5 (UniProt Q05BV3)
inactive: [1] -0.069 | [2] -0.067 | [4] -0.054 | [5] -0.103 | [6] 0.023 | [19] 0.042 | [7] 0.143 | [8] -0.091 | [9] -0.108 | [10] -0.079 | [20] -0.12 | [11] -0.046 | [3] 0.043 | [12] 0.066

ELP5 isoform 2 (UniProt Q8TE02)
inactive: [5] 0.038 | [6] -0.252 | [8] 0.083

ERCC8 (UniProt Q13216)
inactive: [1] 0.019 | [18] 0.05 | [2] -0.061 | [5] -0.03 | [6] 0.085 | [7] 0.06 | [8] -0.009 | [11] 0.053 | [3] 0.031 | [12] -0.05

EPB41L5 (UniProt Q9HCM4)
inactive: [1] -0.035 | [18] -0.047 | [14] -0.213 | [2] 0.061 | [5] 0.043 | [6] 0.062 | [7] 0.106 | [8] -0.043 | [10] -0.122 | [16] 0.077 | [17] 0.093 | [3] 0.173

ERF (UniProt P50548)
inactive: [13] 0.085 | [4] 0.055 | [19] -0.041 | [7] 0.166 | [9] 0.016 | [10] 0.014 | [15] -0.053 | [20] -0.184 | [11] 0.024 | [12] 0.017

EPC1 (UniProt Q9H2F5)
inactive: [18] 0.026 | [5] -0.226 | [6] -0.014 | [7] 0.192 | [8] 0.224

EMC1 isoform 3 (UniProt Q8N766)
inactive: [1] 0.093 | [2] -0.076 | [4] -0.108 | [7] -0.079 | [9] 0.15 | [3] 0.033

EIF3B (UniProt C9JQN7)
inactive: [1] -0.001 | [18] 0.006 | [2] -0.045 | [4] -0.08 | [5] -0.121 | [6] 0.028 | [7] 0.044 | [8] -0.039 | [9] 0.082 | [10] 0.077 | [11] -0.108 | [3] 0.005 | [12] -0.038

EPB41L2 isoform 4 (UniProt O43491)
inactive: [1] -0.03 | [18] 0.176 | [2] 0.039 | [4] -0.08 | [5] -0.098 | [6] 0.048 | [8] -0.009 | [9] 0.027 | [11] 0.125 | [3] -0.065 | [12] -0.156

ELOVL7 (UniProt A1L3X0)
inactive: [1] 0.04 | [18] 0.031 | [2] 0.005 | [4] 0.013 | [19] 0.035 | [9] -0.03 | [10] 0.016 | [20] 0.029 | [11] 0.069 | [3] -0.048 | [12] 0.012

2 records picked at random from those above, as already listed:
ELOVL7 (UniProt A1L3X0)
inactive: [1] 0.04 | [18] 0.031 | [2] 0.005 | [4] 0.013 | [19] 0.035 | [9] -0.03 | [10] 0.016 | [20] 0.029 | [11] 0.069 | [3] -0.048 | [12] 0.012

EMC1 isoform 3 (UniProt Q8N766)
inactive: [1] 0.093 | [2] -0.076 | [4] -0.108 | [7] -0.079 | [9] 0.15 | [3] 0.033

(list continues)

EIF4G3, A0A0A0MSA7
inactive: [4] -0.168 | [19] 0.037 | [9] 0.078 | [20] 0.116

EIF3G (UniProt K7ENA8)
inactive: [1] 0.02 | [18] 0.089 | [2] 0.065 | [5] 0.008 | [6] 0 | [19] 0.03 | [8] 0.087 | [20] -0.097 | [3] 0.041
